Earlier results as cited in US20110207804A1, “COMPOSITIONS FOR THE TREATMENT OF NEOPLASTIC DISEASES” (Slotervaart Participaties BV, priority 2008, published 2011).
For at least one compound, name, drawing or mass did not settle the structure.

Conditions: cited from earlier work

CCCCCCCCCCCCCCCC[n+]1ccccc1 [Cetylpyridinium chloride (CPC), Cetylpyridinium chloride]
HLB-value (Hydrophilic Lypophilic Balance value): 26
